# Laboratory results: patent US20030091584A1
# Results are given in words; binding and its absence hold for the method and conditions named. Some binding calls cover weakened binding; strength is not graded here.
# Substrate: F protein of RSV A/Long MARM with K272Q (respiratory syncytial virus strain A/Long) (UniProt P12568)
# Assay: IFA on HEp-2 cells infected with MARM B9
binder,measurement,value
"A4B4 (monoclonal antibody) (antibody, V domains shown) VH: QVTLRESGPALVKPTQTLTLTCTFSGFSLSTAGMSVGWIRQPPGKALEWLADIWWDDKKHYNPSLKDRLTISKDTSKNQVVLKVTNMDPADTATYYCARDMIFNFYFDVWGQGTTVTVSS VL: DIQMTQSPSTLSASVGDRVTITCSASSRVGYMHWYQQKPGKAPKLLIYDTFFLDSGVPSRFSGSGSGTEFTLTISSLQPDDFATYYCFQGSGYPFTFGGGTKLEIK",binding,binds
